Results are given in words; binding and its absence hold for the method and conditions named. Binding seen in cells or lysates may run through a third protein. Some results given as binding are weak or reduced against the parent protein; the word gives no strength. For some assays here: Tags and fused reporters may be left off the sequences shown.

Amino acid sequences for entries named in this document (tags omitted). A change or cut given only in a name is not applied to a line headed by its entry. Chains listed by the source or under a name are the forms on record and can include a tag or linker.
UniProt O14964: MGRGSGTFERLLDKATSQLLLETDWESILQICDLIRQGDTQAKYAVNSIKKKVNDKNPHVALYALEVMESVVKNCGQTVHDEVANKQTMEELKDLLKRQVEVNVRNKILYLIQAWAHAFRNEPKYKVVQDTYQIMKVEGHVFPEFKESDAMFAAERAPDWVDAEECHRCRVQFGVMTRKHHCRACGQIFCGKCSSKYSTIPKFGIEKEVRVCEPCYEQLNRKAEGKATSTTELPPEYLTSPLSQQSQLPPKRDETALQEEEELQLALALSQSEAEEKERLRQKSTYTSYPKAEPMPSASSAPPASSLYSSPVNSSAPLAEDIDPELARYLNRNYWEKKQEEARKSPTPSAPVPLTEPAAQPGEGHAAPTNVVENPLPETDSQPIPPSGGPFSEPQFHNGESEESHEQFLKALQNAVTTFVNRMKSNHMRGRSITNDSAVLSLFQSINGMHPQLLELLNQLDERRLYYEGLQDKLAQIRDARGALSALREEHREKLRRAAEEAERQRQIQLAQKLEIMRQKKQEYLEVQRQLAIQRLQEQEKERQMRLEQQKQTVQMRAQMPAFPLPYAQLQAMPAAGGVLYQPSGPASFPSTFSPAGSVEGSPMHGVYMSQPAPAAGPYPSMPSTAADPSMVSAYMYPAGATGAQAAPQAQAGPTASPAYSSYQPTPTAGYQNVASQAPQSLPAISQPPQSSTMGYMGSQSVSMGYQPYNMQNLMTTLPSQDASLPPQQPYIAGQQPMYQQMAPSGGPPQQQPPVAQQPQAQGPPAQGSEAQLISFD
dFYVE-HRS-Myc (HRS with a deletion of amino acids 166-215, FYVE domain deleted) (O14964-1, form named): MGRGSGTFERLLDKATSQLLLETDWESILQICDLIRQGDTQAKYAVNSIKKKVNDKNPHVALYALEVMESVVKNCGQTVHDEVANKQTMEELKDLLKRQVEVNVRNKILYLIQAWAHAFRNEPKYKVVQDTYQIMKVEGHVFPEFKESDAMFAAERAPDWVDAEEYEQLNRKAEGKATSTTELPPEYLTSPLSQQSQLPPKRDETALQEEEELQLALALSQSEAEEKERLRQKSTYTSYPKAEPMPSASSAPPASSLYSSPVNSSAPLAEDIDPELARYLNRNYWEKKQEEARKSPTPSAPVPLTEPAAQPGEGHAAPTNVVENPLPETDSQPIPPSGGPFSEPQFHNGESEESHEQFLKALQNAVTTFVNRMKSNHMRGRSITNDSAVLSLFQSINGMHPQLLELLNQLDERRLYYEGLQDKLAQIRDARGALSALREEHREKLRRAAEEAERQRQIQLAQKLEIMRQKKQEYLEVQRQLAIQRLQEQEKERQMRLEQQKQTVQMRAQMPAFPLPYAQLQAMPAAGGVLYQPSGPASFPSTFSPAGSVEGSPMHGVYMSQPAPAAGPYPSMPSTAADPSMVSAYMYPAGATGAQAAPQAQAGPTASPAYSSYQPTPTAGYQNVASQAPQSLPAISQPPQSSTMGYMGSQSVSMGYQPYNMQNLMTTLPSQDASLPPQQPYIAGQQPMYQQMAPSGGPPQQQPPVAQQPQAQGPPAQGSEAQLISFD

Test [1] concerns the target T1, Flag-TLR7 fusion protein (human) (UniProt Q9NYK1).
T1 sequence: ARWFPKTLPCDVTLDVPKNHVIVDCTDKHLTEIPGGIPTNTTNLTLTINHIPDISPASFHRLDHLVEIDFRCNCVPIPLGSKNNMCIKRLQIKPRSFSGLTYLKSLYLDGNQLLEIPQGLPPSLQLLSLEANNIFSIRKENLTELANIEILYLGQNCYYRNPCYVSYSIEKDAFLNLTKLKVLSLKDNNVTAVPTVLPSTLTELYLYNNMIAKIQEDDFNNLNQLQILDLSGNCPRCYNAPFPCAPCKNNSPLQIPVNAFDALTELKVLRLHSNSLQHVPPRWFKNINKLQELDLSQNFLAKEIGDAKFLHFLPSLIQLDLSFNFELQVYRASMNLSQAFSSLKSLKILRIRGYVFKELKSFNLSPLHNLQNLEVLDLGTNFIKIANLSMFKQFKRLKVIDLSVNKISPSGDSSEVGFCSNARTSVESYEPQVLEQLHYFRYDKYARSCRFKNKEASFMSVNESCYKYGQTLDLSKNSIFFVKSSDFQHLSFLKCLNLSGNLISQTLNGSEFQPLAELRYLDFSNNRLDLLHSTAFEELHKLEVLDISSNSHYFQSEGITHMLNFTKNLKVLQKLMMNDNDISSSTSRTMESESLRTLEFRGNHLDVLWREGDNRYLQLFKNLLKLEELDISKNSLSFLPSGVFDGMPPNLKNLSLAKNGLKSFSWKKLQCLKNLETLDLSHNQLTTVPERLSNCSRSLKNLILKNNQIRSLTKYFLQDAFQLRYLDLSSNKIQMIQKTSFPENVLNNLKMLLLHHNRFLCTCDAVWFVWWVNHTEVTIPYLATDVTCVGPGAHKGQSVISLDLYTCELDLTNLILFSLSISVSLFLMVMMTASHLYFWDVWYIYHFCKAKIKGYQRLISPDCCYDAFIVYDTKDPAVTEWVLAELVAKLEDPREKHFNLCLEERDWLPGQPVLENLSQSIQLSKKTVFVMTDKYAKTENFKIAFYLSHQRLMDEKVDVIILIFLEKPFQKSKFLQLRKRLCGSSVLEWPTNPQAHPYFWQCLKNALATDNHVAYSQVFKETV
The test can be described thus: co-IP; HEK293T cells co-transfected with Flag-TLR7 or Flag-TAB1 and HRS-Myc (or dFYVE-Myc); cell lysates immunoprecipitated with anti-Flag or anti-Myc antibodies; Western blot.

Test [2] has as its target GST-HRS (human) (UniProt O14964). Nature of the test: pull-down; 25 ug purified GST or GST-HRS and glutathione-sepharose beads incubated with THP-1 cell lysate for 2 h at 4 °C; four washes with ice-cold lysis buffer; immunoblot; only the target purified. (Immunoblotting shows a protein as a band on a membrane.)
For test [3], the target named is T2, TLR7 (endogenous) (human (endogenous in THP-1)) (UniProt Q9NYK1).
T2 sequence: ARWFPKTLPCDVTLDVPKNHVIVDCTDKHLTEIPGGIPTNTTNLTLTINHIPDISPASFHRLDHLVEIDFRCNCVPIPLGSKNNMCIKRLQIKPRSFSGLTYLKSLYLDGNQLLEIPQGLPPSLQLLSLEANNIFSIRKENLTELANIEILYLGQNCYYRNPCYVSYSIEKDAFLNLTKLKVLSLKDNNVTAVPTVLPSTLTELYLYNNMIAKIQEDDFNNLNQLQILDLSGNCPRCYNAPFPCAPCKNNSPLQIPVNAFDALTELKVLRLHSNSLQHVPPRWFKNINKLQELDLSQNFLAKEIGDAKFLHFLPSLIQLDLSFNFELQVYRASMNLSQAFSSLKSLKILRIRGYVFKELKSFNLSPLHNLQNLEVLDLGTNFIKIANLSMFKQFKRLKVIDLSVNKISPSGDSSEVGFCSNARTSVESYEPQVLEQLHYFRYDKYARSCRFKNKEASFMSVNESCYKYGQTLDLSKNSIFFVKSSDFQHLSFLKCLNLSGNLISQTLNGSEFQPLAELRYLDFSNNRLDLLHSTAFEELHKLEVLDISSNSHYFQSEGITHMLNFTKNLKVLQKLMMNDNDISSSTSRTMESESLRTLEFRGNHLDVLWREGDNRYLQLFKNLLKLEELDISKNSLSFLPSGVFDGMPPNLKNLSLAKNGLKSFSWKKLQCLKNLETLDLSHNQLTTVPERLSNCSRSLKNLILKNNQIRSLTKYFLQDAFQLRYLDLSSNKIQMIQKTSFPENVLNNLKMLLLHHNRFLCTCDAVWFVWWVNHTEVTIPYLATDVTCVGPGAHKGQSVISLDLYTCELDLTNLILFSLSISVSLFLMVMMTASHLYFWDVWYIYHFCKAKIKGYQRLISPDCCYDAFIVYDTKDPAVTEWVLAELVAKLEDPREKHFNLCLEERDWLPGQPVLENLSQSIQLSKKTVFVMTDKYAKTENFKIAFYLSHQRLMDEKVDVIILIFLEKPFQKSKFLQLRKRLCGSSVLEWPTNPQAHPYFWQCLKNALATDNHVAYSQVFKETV
The test can be described thus: co-IP; endogenous proteins; macrophages derived from THP-1 cells stimulated with R848 (100 ng/ml) or infected with EV71 (MOI = 5) for various times, also after transfection of siR-HRS or siR-NC; lysed in RIPA buffer; immunoprecipitated with rabbit anti-TLR7 or normal rabbit IgG and protein G …; Western blot.

As to “dFYVE-HRS-Myc (HRS with a deletion of amino acids 166-215, FYVE domain deleted) (from UniProt O14964-1 1-777)”, the binding result in test [1] is recorded as “no binding”.

B1: TAK1 (endogenous) (protein, UniProt O43318 1-606)
chain: MSTASAASSSSSSSAGEMIEAPSQVLNFEEIDYKEIEVEEVVGRGAFGVVCKAKWRAKDVAIKQIESESERKAFIVELRQLSRVNHPNIVKLYGACLNPVCLVMEYAEGGSLYNVLHGAEPLPYYTAAHAMSWCLQCSQGVAYLHSMQPKALIHRDLKPPNLLLVAGGTVLKICDFGTACDIQTHMTNNKGSAAWMAPEVFEGSNYSEKCDVFSWGIILWEVITRRKPFDEIGGPAFRIMWAVHNGTRPPLIKNLPKPIESLMTRCWSKDPSQRPSMEEIVKIMTHLMRYFPGADEPLQYPCQYSDEGQSNSATSTGSFMDIASTNTSNKSDTNMEQVPATNDTIKRLESKLLKNQAKQQSESGRLSLGASRGSSVESLPPTSEGKRMSADMSEIEARIAATTAYSKPKRGHRKTASFGNILDVPEIVISGNGQPRRRSIQDLTVTGTEPGQVSSRSSSPSVRMITTSGPTSEKPTRSHPWTPDDSTDTNGSDNSIPMAYLTLDHQLQPLAPCPNSKESMAVFEQHCKMAQEYMKVQTEIALLLQRKQELVAELDQDEKDQQNTSRLVQEHKKLLDENKSLSTYYQQCKKQLEVIRSQQQKRQGTS
Take B1: the binding result in test [2] is listed as “binds”.

B2: TLR7 (endogenous) (receptor, UniProt Q9NYK1 27-1049)
chain: ARWFPKTLPCDVTLDVPKNHVIVDCTDKHLTEIPGGIPTNTTNLTLTINHIPDISPASFHRLDHLVEIDFRCNCVPIPLGSKNNMCIKRLQIKPRSFSGLTYLKSLYLDGNQLLEIPQGLPPSLQLLSLEANNIFSIRKENLTELANIEILYLGQNCYYRNPCYVSYSIEKDAFLNLTKLKVLSLKDNNVTAVPTVLPSTLTELYLYNNMIAKIQEDDFNNLNQLQILDLSGNCPRCYNAPFPCAPCKNNSPLQIPVNAFDALTELKVLRLHSNSLQHVPPRWFKNINKLQELDLSQNFLAKEIGDAKFLHFLPSLIQLDLSFNFELQVYRASMNLSQAFSSLKSLKILRIRGYVFKELKSFNLSPLHNLQNLEVLDLGTNFIKIANLSMFKQFKRLKVIDLSVNKISPSGDSSEVGFCSNARTSVESYEPQVLEQLHYFRYDKYARSCRFKNKEASFMSVNESCYKYGQTLDLSKNSIFFVKSSDFQHLSFLKCLNLSGNLISQTLNGSEFQPLAELRYLDFSNNRLDLLHSTAFEELHKLEVLDISSNSHYFQSEGITHMLNFTKNLKVLQKLMMNDNDISSSTSRTMESESLRTLEFRGNHLDVLWREGDNRYLQLFKNLLKLEELDISKNSLSFLPSGVFDGMPPNLKNLSLAKNGLKSFSWKKLQCLKNLETLDLSHNQLTTVPERLSNCSRSLKNLILKNNQIRSLTKYFLQDAFQLRYLDLSSNKIQMIQKTSFPENVLNNLKMLLLHHNRFLCTCDAVWFVWWVNHTEVTIPYLATDVTCVGPGAHKGQSVISLDLYTCELDLTNLILFSLSISVSLFLMVMMTASHLYFWDVWYIYHFCKAKIKGYQRLISPDCCYDAFIVYDTKDPAVTEWVLAELVAKLEDPREKHFNLCLEERDWLPGQPVLENLSQSIQLSKKTVFVMTDKYAKTENFKIAFYLSHQRLMDEKVDVIILIFLEKPFQKSKFLQLRKRLCGSSVLEWPTNPQAHPYFWQCLKNALATDNHVAYSQVFKETV
For the molecule B2, the binding entry in test [2] is reported as “binds”.

B3: TAB1 (endogenous) (protein, UniProt Q15750 1-504)
chain: MAAQRRSLLQSEQQPSWTDDLPLCHLSGVGSASNRSYSADGKGTESHPPEDSWLKFRSENNCFLYGVFNGYDGNRVTNFVAQRLSAELLLGQLNAEHAEADVRRVLLQAFDVVERSFLESIDDALAEKASLQSQLPEGVPQHQLPPQYQKILERLKTLEREISGGAMAVVAVLLNNKLYVANVGTNRALLCKSTVDGLQVTQLNVDHTTENEDELFRLSQLGLDAGKIKQVGIICGQESTRRIGDYKVKYGYTDIDLLSAAKSKPIIAEPEIHGAQPLDGVTGFLVLMSEGLYKALEAAHGPGQANQEIAAMIDTEFAKQTSLDAVAQAVVDRVKRIHSDTFASGGERARFCPRHEDMTLLVRNFGYPLGEMSQPTPSPAPAAGGRVYPVSVPYSSAQSTSKTSVTLSLVMPSQGQMVNGAHSASTLDEATPTLTNQSPTLTLQSTNTHTQSSSSSSDGGLFRSRPAHSLPPGEDGRVEPYVDFAEFYRLWSVDHGEQSVVTAP
Consider B3, for which the binding entry in test [2] and in test [3] was “binds” each time.

Source of the values: paper PMC5595348.
